Results are given in words; binding and its absence hold for the method and conditions named. Where a sequence is shown, tags or fusion partners need not be part of it.

Amino acid sequences for entries named in this document (tags omitted). A change or cut given only in a name is not applied to a line headed by its entry.
UniProt P40460: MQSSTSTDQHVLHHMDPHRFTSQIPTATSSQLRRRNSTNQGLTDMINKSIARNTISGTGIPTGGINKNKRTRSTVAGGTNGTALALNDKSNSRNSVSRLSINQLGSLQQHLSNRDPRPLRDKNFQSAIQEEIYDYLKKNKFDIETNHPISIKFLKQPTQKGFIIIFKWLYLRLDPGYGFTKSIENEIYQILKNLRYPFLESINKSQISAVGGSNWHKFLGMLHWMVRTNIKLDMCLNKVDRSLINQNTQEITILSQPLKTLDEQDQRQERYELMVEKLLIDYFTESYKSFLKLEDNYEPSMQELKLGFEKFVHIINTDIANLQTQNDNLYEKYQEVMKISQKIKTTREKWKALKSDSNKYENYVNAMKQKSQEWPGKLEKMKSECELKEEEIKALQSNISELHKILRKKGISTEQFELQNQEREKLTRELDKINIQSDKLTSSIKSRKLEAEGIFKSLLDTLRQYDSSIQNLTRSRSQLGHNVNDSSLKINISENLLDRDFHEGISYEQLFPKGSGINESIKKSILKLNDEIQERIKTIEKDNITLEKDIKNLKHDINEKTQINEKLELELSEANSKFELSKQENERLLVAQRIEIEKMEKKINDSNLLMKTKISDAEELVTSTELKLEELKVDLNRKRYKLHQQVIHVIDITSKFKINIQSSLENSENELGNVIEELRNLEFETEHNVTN

In the test the target is Mtw1c/Ndc80c-Flag (MN subcomplexes) (S. cerevisiae) (UniProt P40460). In words: pull-down; KMN or its subcomplexes from Sf9 cells immobilised on anti-Flag M2 beads; 100 µl of 2 µM Ipl1/Sli15 added to ~20 µl beads; 4 °C, 6 h; 25 mM HEPES pH 7.4, 200 mM NaCl, 1 mM MgCl2, 2.5% glycerol, 0.01% Tween-20; eluted with 3xFlag peptide; Coomassie and anti-His blot; also done with prolonged incubation times (Fig. EV3A); both purified.

B1: Ipl1/6xHis-Sli15 complex (wild type, untreated) (complex, S. cerevisiae)
chain 1: MQRNSLVNIKLNANSPSKKTTTRPNTSRINKPWRISHSPQQRNPNSKIPSPVREKLNRLPVNNKKFLDMESSKIPSPIRKATSSKMIHENKKLPKFKSLSLDDFELGKKLGKGKFGKVYCVRHRSTGYICALKVMEKEEIIKYNLQKQFRREVEIQTSLNHPNLTKSYGYFHDEKRVYLLMEYLVNGEMYKLLRLHGPFNDILASDYIYQIANALDYMHKKNIIHRDIKPENILIGFNNVIKLTDFGWSIINPPENRRKTVCGTIDYLSPEMVESREYDHTIDAWALGVLAFELLTGAPPFEEEMKDTTYKRIAALDIKMPSNISQDAQDLILKLLKYDPKDRMRLGDVKMHPWILRNKPFWENKRL
chain 2: MDWAIKAARKKTQRKPGSTRSIIETLDDLNNLTTDAHSEINQRLYESSEWLRNNVYMNTLKYEDKKMEESLISPENTHNKMDVEFPKMKGEYELSNSQNDAAKDVTKTPRNGLHNDKSITPKSLRRKEVTEGMNRFSIHDTNKSPVEPLNSVKVDANESEKSSPWSPYKVEKVLRESSKTSESPINTKRFDNQTWAAKEEMENEPILQALKKAESVKVKPPPNSGIARSQRRSNMFVPLPNKDPLIIQHIPPTKSSGSIPKVRTVKESPIAFKKKSTINSPAIRAVENSDTAGSTKASSVFDRLSSIPTKSFENKISRGNVGHKYSSSSIDLTGSPMKKVSQKFKSINSTDTDMQEALRDIFSVKNKITKNNSPKGKNSRKSSIPRFDKTSLKLTTHKKLAIIAEQKKKSKHSSDVHKTGSRPHSISPTKISVDSSSPSKEVKNYYQSPVRGYLRPTKASISPNKNKNLTTSQTPHRLKIKEKTLRKLSPNIADISKPESRKSKNYRLTNLQLLPPAEAERDDLKKKFDKRLSGIMRSQQEHHRRKQEKQKRMSHLEQDLKKQTSFSNDYKDIRLKESLAPFDNHVRDTINKNTAFSTDNILATINTVDHREIIGNVTPKIASVNDSLPEINTDSEDEASVTLAAWAKSPYLQEQLIRQQDINPQTIFGPIPPLHTDEIFPNPRLNRLKPRQIVPKRS
notes: Ipl1 (Aurora B homologue), S. cerevisiae; Sli15 (INCENP homologue), S. cerevisiae; the full-length form was preferentially pulled down; also called Ipl1/Sli15; Ipl1/Sli15 complex; source: E. coli BL21, purified (HisTrap, SEC on Superdex 200)
For the molecule B1, the binding result is recorded as “no binding (tested: 2 µM)”.

These data come from PMC12170873, “The Spc105/Kre28 complex promotes mitotic error correction by outer kinetochore recruitment of Ipl1/Sli15” (The EMBO Journal, 2025).
